{"source": "PubChem BioAssay AID1347075", "about": "(National Center for Advancing Translational Sciences (NCATS), 2019)", "note": "About 5,500 (1.4%) of roughly 400,000 compounds were called active. This list was built around the results that the source calls inconclusive (neither active nor inactive); the mix of calls is not that of the screen. Calls follow the shape of the dose curve; as a rule, active = well fitted cell-killing curve with a large enough effect; inconclusive = small, poorly fitted or top-dose-only effect, or effect the other way; inactive = flat fitted curve, though single readings scatter. Where the call is inconclusive, the potency comes from a doubtful curve fit. Potency is read from the fitted curve at half-maximal effect.", "data": [{"experiment": "qHTS assay for MDR1-selective chemotherapeutics: Primary screen using the parental adenocarcinoma cell KB-3-1; also: nearly all actives have a fitted effect of over 60% in size", "conditions": "KB-3-1 viability, CellTiter-Glo ATP luminescence, 72 h; series mostly up to 46.1 µM", "summary_of_the_method": "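Cytotoxicity in the drug-sensitive parental line KB-3-1 was scored as loss of CellTiter-Glo luminescence following 72 h incubation with compound. Values come from curve fitting of normalized concentration-response data.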", "values": [{"smiles": "O=C(CC1C(=O)NCCN1C(=O)Nc1ccc(C(F)(F)F)cc1)Nc1ccc(F)cc1", "note": "(configuration not stated)", "Potency": "inactive"}, {"smiles": "C=CCc1c(C)nc(SC)nc1Nc1ccc(C(=O)O)cc1", "Potency": "inconclusive: 18.4 µM [cytotoxic, single point]"}, {"smiles": "O=C(Nc1c(Cl)cc([N+](=O)[O-])cc1Cl)c1cc(Cl)cc(Cl)c1O", "Potency": "active: 18.4 µM"}, {"smiles": "Oc1cccc(NC(=S)Nc2ccc(SC(F)F)cc2)c1", "Potency": "inconclusive: 32.6 µM [cytotoxic, single point]"}, {"smiles": "N#C/C(=C/c1ccc(-c2ccccc2)o1)c1nc(-c2cccs2)cs1", "Potency": "inactive"}, {"smiles": "CCOC(=O)N1CCN(S(=O)(=O)c2ccc(C(=O)NNc3nc4c(C)cccc4s3)cc2)CC1", "Potency": "inconclusive: 29.1 µM [cytotoxic, single point]"}, {"smiles": "O=C(CN(Cc1cccs1)S(=O)(=O)c1ccc(S(=O)(=O)NC2CCCCC2)cc1)Nc1ccccc1", "Potency": "inconclusive: 29.1 µM [cytotoxic, single point]"}, {"smiles": "COc1cc(C(=O)c2cocc2C(=O)c2ccc3c(c2)OCO3)cc(OC)c1OC", "Potency": "inconclusive: 1.84 µM [cytotoxic, full curve, poor fit]"}, {"smiles": "CC(OC(=O)CCOc1ccccc1)C(=O)NC1CC1", "note": "(configuration not stated)", "Potency": "inconclusive: 11.6 µM [rising, partial curve]"}, {"smiles": "CCN(CC)S(=O)(=O)c1ccc(NC(=O)c2ccc3c(=O)n4c(nc3c2)CCCCC4)cc1", "Potency": "inconclusive: 18.4 µM [cytotoxic, single point]"}, {"smiles": "CCCC(=O)NC(c1ccco1)c1cc([N+](=O)[O-])c2cccnc2c1O", "note": "(configuration not stated)", "Potency": "inconclusive: 29.1 µM [cytotoxic, single point]"}, {"smiles": "CCOc1ccccc1N(C)C(=O)c1cc(S(=O)(=O)NCCc2ccc(Cl)cc2)ccc1F", "Potency": "inconclusive: 18.4 µM [cytotoxic, single point]"}, {"smiles": "CCOc1ccc(NC(=O)COc2ccc(S(=O)(=O)N3CCOCC3)cc2)cc1", "Potency": "inconclusive: 0.461 µM [rising, full curve]"}, {"smiles": "CCCCSc1nc(C)cc(C)c1S(=O)(=O)c1ccccc1C", "Potency": "inconclusive: 32.6 µM [cytotoxic, single point]"}, {"smiles": "CCOc1ccc(C(=O)C(C)OC(=O)Cn2[nH]c(=O)c3ccccc3c2=O)cc1", "note": "(configuration not stated)", "Potency": "inactive"}, {"smiles": "Cc1ccc(S(=O)(=O)N2CCOC23CCN(C(=O)c2ccc(Cl)cc2Cl)CC3)cc1", "Potency": "inconclusive: 29.1 µM [cytotoxic, single point]"}, {"smiles": "CC(=O)c1ccc(S(=O)(=O)N2CCN(C(=O)c3ccc(COc4ccccc4)o3)CC2)cc1", "Potency": "inconclusive: 20.6 µM [cytotoxic, partial curve]"}, {"smiles": "C[C@H]1CN([C@@H](C)CO)C(=O)Cc2cc(NC(=O)CCC(F)(F)F)ccc2O[C@H]1CN(C)Cc1ccc(C(F)(F)F)cc1", "Potency": "inconclusive: 29.1 µM [cytotoxic, single point]"}, {"smiles": "CCN(CC)S(=O)(=O)c1ccc(NCCCn2ccnc2)c([N+](=O)[O-])c1", "Potency": "inconclusive: 23.1 µM [cytotoxic, single point]"}, {"smiles": "O=C1NC[C@@H](CCCCN2C[C@H](Cc3ccc(O)cc3)N(CCc3ccccc3)C(=O)C2=O)N(Cc2ccccc2)C1=O", "Potency": "inconclusive: 29.1 µM [rising, single point]"}, {"smiles": "Cc1cc(C)c2nc(-c3ccccn3)cc(C(=O)NCCc3ccc(S(N)(=O)=O)cc3)c2c1", "Potency": "inactive"}, {"smiles": "O=C(c1ccc2c3c(cccc13)CC2)C1CCCN(C(=O)c2cc[n+]([O-])cc2)C1", "note": "(configuration not stated)", "Potency": "inconclusive: 29.1 µM [rising, single point]"}, {"smiles": "Cc1sc(N/N=C/c2cccnc2)nc1-c1ccccc1", "Potency": "inconclusive: 16.4 µM [cytotoxic, single point]"}, {"smiles": "N/C(=N\\OC(=O)c1ccccc1)C(Cc1ccccc1)C(=O)NOC(=O)c1ccccc1", "note": "(configuration not stated)", "Potency": "inconclusive: 25.9 µM [cytotoxic, single point]"}, {"smiles": "O=C(O)c1ccc(C(=O)c2cc([N+](=O)[O-])cc([N+](=O)[O-])c2)cc1", "Potency": "inactive"}, {"smiles": "CC(C)(C)c1ccc(-c2cn(-c3ccc(Br)cc3)c3[n+]2CCCS3)cc1", "Potency": "inconclusive: 2.06 µM [cytotoxic, partial curve, poor fit]"}, {"smiles": "Cc1ccc(S(=O)(=O)NC(=O)C2(C)CCN2C(=O)Cc2cc(F)ccc2F)nc1", "note": "(configuration not stated)", "Potency": "inactive"}, {"smiles": "Cc1noc(C)c1NC(=O)N(C)C[C@@H]1OCc2ccccc2-c2c(n(C)c3ccccc23)C(=O)N([C@H](C)CO)C[C@H]1C", "Potency": "inconclusive: 18.4 µM [cytotoxic, single point]"}, {"smiles": "COc1ccc(C2(c3ccc(OC)cc3)NC(=O)N(CC(=O)N(C)c3ccccc3)C2=O)cc1", "Potency": "inactive"}, {"smiles": "COc1ccc(S(=O)(=O)N2CCN(c3ccc(C)cc3C)CC2)cc1OC", "Potency": "inactive"}, {"smiles": "O=C(CSc1nc(=O)n2cc(Cl)ccc2n1)NCCc1ccccc1", "Potency": "inconclusive: 29.1 µM [rising, single point]"}, {"smiles": "CN(C)C=Nc1ccc2nn(-c3ccccc3)nc2c1", "Potency": "inconclusive: 23.1 µM [cytotoxic, single point]"}, {"smiles": "Nc1sc(-c2ccccc2)cc1C(=O)NCCc1c[nH]c2ccccc12", "Potency": "inconclusive: 20.6 µM [cytotoxic, single point]"}, {"smiles": "O=C(Nc1ccccc1[N+](=O)[O-])OCC=Cc1ccccc1", "Potency": "inactive"}, {"smiles": "COc1nc(Nc2ccccc2)nc(OC)n1", "Potency": "inconclusive: 29.1 µM [cytotoxic, single point]"}, {"smiles": "Cn1cc(-c2coc3c(C(=O)NCc4ccco4)cccc23)cn1", "Potency": "inconclusive: 25.9 µM [cytotoxic, single point]"}, {"smiles": "O=C(Nc1ccccc1-c1ccccc1)C1CCCC1", "Potency": "active: 7.31 µM"}, {"smiles": "CC(C)(C)c1ccccc1OCCCCCn1ccnc1", "Potency": "inactive"}, {"smiles": "Cc1ccc(NC(=O)C[n+]2cc(-c3ccccc3)n3c2CCC3)cc1", "Potency": "inconclusive: 16.4 µM [cytotoxic, single point]"}, {"smiles": "CC(C)[C@@H]1Cc2[nH]c(=S)[nH]c(=O)c2[C@H](C)O1", "Potency": "active: 8.2 µM"}, {"smiles": "CCN1CCC(Nc2ccnc3cc(Cl)ccc23)CC1", "Potency": "inactive"}, {"smiles": "Cc1cccc2sc(N(CCCN(C)C)C(=O)c3ccc(S(=O)(=O)N4CCc5ccccc5C4)cc3)nc12", "Potency": "inconclusive: 18.4 µM [cytotoxic, single point]"}]}]}
